# PubChem BioAssay AID1508587 | Peter MacCallum Cancer Centre – 2020
# Assay: 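Retest of knockdowns boosting BRAF inhibitor action on lactate release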 (follow-up of hits)
# Cell system: human WM266.4 melanoma cells with a BRAF V600 mutation
# Knock-down reagent: single siRNA against human genes, 25 nM
# Duration: 96 h
# Conditions: vemurafenib 300 nM (about IC25), given 48 h after transfection for 48 h
# Read-out: 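Per-cell lactate from absorbance divided by DAPI nucleus counts, compared with and without vemurafenib, relative to non-targeting siRNA, mean of 2 replicates; nuclear counts also give cell number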
# Reading the numbers: lactate per cell, drug vs no drug: higher = less drug-induced drop in lactate per cell; lactate per cell with vemurafenib: higher = more lactate per cell under drug; lactate per cell without drug: higher = more lactate per cell without drug; cell growth with vemurafenib and cell growth without drug: higher = more cell growth over 48 h
# Hit rule: 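a duplex is active when its lactate-per-cell ratio with versus without drug falls under 0.55, i.e. 2 SD below non-targeting; a gene is confirmed if 2 or more of 4 duplexes pass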
# The deposit covers about 1,600 reagents; shown is a part drawn at random. Over the whole deposit, 623 (39%) are marked active. 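Calls are for each duplex; lactate ratios contain extreme outliers.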 Reagents against one gene are numbered here.
Gene,reagent,"lactate per cell, drug vs no drug",lactate per cell with vemurafenib,lactate per cell without drug,cell growth with vemurafenib,cell growth without drug,Call
THSD1 (GeneID 55901),1,0.45,1.17,1.58,0.27,0.28,active
THSD1 (GeneID 55901),2,0.6,1.46,1.5,0.06,0.13,inactive
THSD1 (GeneID 55901),3,0.57,0.88,0.96,0.27,0.58,inactive
THSD1 (GeneID 55901),4,0.48,1.44,1.86,0.13,0.26,active
MAPK13 (GeneID 5603),1,0.65,4.47,4.34,0.08,0.01,inactive
MAPK13 (GeneID 5603),2,0.57,0.77,0.86,0.98,1.19,inactive
MAPK13 (GeneID 5603),3,0.58,1.12,1.22,0.79,0.62,inactive
MAPK13 (GeneID 5603),4,0.57,0.82,0.94,0.43,0.79,inactive
TPR (GeneID 7175),1,0.49,0.76,1.1,0.6,0.67,active
TPR (GeneID 7175),2,0.53,0.71,0.92,0.32,0.48,active
TPR (GeneID 7175),3,0.7,1.54,1.57,0.14,0.16,inactive
TPR (GeneID 7175),4,0.78,1.56,1.42,0.55,0.52,inactive
IGF2BP1 (GeneID 10642),1,0.56,1.88,2.06,0.29,0.29,inactive
IGF2BP1 (GeneID 10642),2,0.61,0.78,0.8,0.4,0.54,inactive
IGF2BP1 (GeneID 10642),3,0.46,1.27,1.72,0.29,0.18,active
IGF2BP1 (GeneID 10642),4,0.54,0.6,0.71,0,0.38,active
STAT5B (GeneID 6777),1,0.55,1.81,2.13,0.64,0.47,inactive
STAT5B (GeneID 6777),2,0.77,2.17,1.82,0,0.06,inactive
STAT5B (GeneID 6777),3,0.45,0.46,0.68,0.47,0.43,active
STAT5B (GeneID 6777),4,0.5,0.57,0.74,0.95,1.21,active
GCK (GeneID 2645),1,0.07,0.1,0.94,0.05,0.26,active
GCK (GeneID 2645),2,0.61,1.53,1.6,0.34,0.41,inactive
GCK (GeneID 2645),3,0.51,0.98,1.19,0.91,0.68,active
GCK (GeneID 2645),4,0.83,1.61,1.27,0.35,0.43,inactive
TRIB3 (GeneID 57761),1,0.56,1.92,2.21,0.31,0.14,inactive
TRIB3 (GeneID 57761),2,0.92,1.1,0.75,0.11,0.77,inactive
TRIB3 (GeneID 57761),3,0.84,2.24,1.73,0.14,0.35,inactive
TRIB3 (GeneID 57761),4,0.53,0.73,0.88,0.45,0.53,active
ARHGAP6 (GeneID 395),1,0.7,2.58,2.43,0.05,0.03,inactive
ARHGAP6 (GeneID 395),2,0.65,1.17,1.22,0.2,0.41,inactive
ARHGAP6 (GeneID 395),3,0.48,0.63,0.87,0.67,0.9,active
ARHGAP6 (GeneID 395),4,0.72,2.05,1.86,0.21,0.32,inactive
MTO1 (GeneID 25821),1,0.56,1.63,1.91,0.05,0.01,inactive
MTO1 (GeneID 25821),2,0.62,0.96,1,1.07,1.18,inactive
MTO1 (GeneID 25821),3,0.52,0.62,0.76,0.41,0.88,active
MTO1 (GeneID 25821),4,0.44,1.06,1.58,0.91,0.41,active
GIPC1 (GeneID 10755),1,0.62,1.15,1.24,1.18,0.87,inactive
GIPC1 (GeneID 10755),2,0.82,0.76,0.64,-0.04,0.28,inactive
GIPC1 (GeneID 10755),3,0.86,4.28,3.34,-0.02,-0.03,inactive
GIPC1 (GeneID 10755),4,1,2.53,1.71,0.27,0.32,inactive
CHURC1 (GeneID 91612),1,0.59,1.02,1.1,0.6,0.62,inactive
CHURC1 (GeneID 91612),2,0.76,3.28,2.77,0.16,0.16,inactive
CHURC1 (GeneID 91612),3,0.29,0.7,1.56,0.35,0.12,active
CHURC1 (GeneID 91612),4,0.3,0.4,0.84,0.28,0.54,active
HTR5A (GeneID 3361),1,0.68,2.56,2.4,0.28,0.16,inactive
HTR5A (GeneID 3361),2,0.68,1.38,1.27,0.18,0.35,inactive
HTR5A (GeneID 3361),3,0.6,0.77,0.81,0.96,1.09,inactive
HTR5A (GeneID 3361),4,0.75,1,0.85,0.52,0.67,inactive
ZNF585B (GeneID 92285),1,0.68,1.09,1.07,0.79,0.9,inactive
ZNF585B (GeneID 92285),2,0.45,0.84,1.27,0.01,0.04,active
ZNF585B (GeneID 92285),3,0.54,1.18,1.48,0.28,0.3,active
ZNF585B (GeneID 92285),4,0.76,1.21,1.08,0.09,0.15,inactive

Targets listed so far whose gene name begins with I or i (4):
Gene,reagent,"lactate per cell, drug vs no drug",lactate per cell with vemurafenib,lactate per cell without drug,cell growth with vemurafenib,cell growth without drug,Call
IGF2BP1 (GeneID 10642),1,0.56,1.88,2.06,0.29,0.29,inactive
IGF2BP1 (GeneID 10642),2,0.61,0.78,0.8,0.4,0.54,inactive
IGF2BP1 (GeneID 10642),3,0.46,1.27,1.72,0.29,0.18,active
IGF2BP1 (GeneID 10642),4,0.54,0.6,0.71,0,0.38,active
